Test results from paper PMC9682543.
No constants are given. Whether binding was seen depends on the method and setting. In cells and extracts the contact can be indirect. Some binding calls cover weakened binding; strength is not graded here.

Molecular target: T1, serpinE2 (serine (or cysteine) peptidase inhibitor, clade E, member 2) (mouse (endogenous in neonatal mouse cardiac fibroblasts)) (UniProt Q07235)
T1 sequence: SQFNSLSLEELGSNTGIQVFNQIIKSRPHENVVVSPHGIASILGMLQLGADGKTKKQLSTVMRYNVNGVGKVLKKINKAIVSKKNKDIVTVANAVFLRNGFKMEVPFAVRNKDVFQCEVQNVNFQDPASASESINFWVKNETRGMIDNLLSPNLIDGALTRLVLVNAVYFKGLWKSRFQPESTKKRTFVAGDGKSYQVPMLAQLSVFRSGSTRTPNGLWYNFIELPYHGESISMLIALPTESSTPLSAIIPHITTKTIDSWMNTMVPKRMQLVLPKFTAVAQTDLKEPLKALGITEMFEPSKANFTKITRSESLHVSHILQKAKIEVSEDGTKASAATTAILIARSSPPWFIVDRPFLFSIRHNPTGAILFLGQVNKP
Assay: co-IP; cardiac fibroblasts lysed in IP lysis buffer; complex captured with anti-serpinE2 antibody and Protein A/G PLUS-Agarose, washed with PBS; uPAR and LRP1 detected by immunoblotting; IgG as negative control

B1: urokinase plasminogen activator receptor (uPAR) (receptor, UniProt P35456 24-298)
chain: LQCMQCESNQSCLVEECALGQDLCRTTVLREWQDDRELEVVTRGCAHSEKTNRTMSYRMGSMIISLTETVCATNLCNRPRPGARGRAFPQGRYLECASCTSLDQSCERGREQSLQCRYPTEHCIEVVTLQSTERSLKDEDYTRGCGSLPGCPGTAGFHSNQTFHFLKCCNYTHCNGGPVLDLQSFPPNGFQCYSCEGNNTLGCSSEEASLINCRGPMNQCLVATGLDVLGNRSYTVRGCATASWCQGSHVADSFPTHLNVSVSCCHGSGCNSPTG
  binding: binds
